The values below come from ChEMBL document CHEMBL5154701, “Thieno[2,3-d]pyrimidine-2,4(1H,3H)-dione Derivative Inhibits d-Dopachrome Tautomerase Activity and Suppresses the Proliferation of Non-Small Cell Lung Cancer Cells” (J Med Chem, 2022).

Details in all cases: Homo sapiens
In series [1] the target is 4-hydroxylphenylpyruvate. Kind of series: (§1) Substrate activity at MIF (unknown origin) assessed as ratio of Kcat to Km.
In series [2] the target is 4-chlorophenylpyruvate. Described as §1.
Series [3] concerns the target phenylpyruvate. The series is described as §1.
Series [4] deals with 4-methoxyphenylpyruvate. Described as §1.
Series [5] concerns the target phenylpyruvate. Kind of series: (§2) Substrate activity at MIF (unknown origin) assessed as rate constant Kcat.
The target of series [6] is 4-methoxyphenylpyruvate. The description is as §2.
The target of series [7] is 4-hydroxylphenylpyruvate. In words: (§3) Substrate activity at MIF (unknown origin) assessed as rate constant Km.
The target of series [8] is 4-chlorophenylpyruvate. Described as §3.
In series [9] the target is phenylpyruvate. The description is as §3.
Series [10] deals with 4-methoxyphenylpyruvate. The series is described as §3.

B1: Macrophage migration inhibitory factor (Homo sapiens), P14174 (protein)
chain: MPMFIVNTNVPRASVPDGFLSELTQQLAQATGKPPQYIAVHVVPDQLMAFGGSSEPCALCSLHSIGKIGGAQNRSYSKLLCGLLAERLRISPDRVYINYYDMNAANVGWNNSTFA
For the protein B1, the kcat/Km with 4-hydroxylphenylpyruvate [1] is 2.6 10^4/M/s; with 4-chlorophenylpyruvate [2], 4.3 10^4/M/s; with phenylpyruvate [3], 1.9 10^4/M/s; with 4-methoxyphenylpyruvate [4], 0.98 10^4/M/s. For the same protein, the catalytic constant (kcat) is 14 s⁻¹ with phenylpyruvate [5] and 13 s⁻¹ with 4-methoxyphenylpyruvate [6]. In addition, the Km with 4-hydroxylphenylpyruvate [7] came to 940 µM; with 4-chlorophenylpyruvate [8], 600 µM; with phenylpyruvate [9], 760 µM; with 4-methoxyphenylpyruvate [10], 1300 µM.

The kcat/Km is the second-order rate constant that governs catalysis at low substrate concentration. As usually defined, the kcat is the number of substrate molecules converted per active site and unit of time at saturation. Broadly, the Km is the concentration of substrate that gives half-maximal velocity.
